Results taken from patent publication EP0555681A1, “Use of a combination of potassium channel activators and sulfhydryl containing compounds for the manufacture of a medicament for the treatment of ischemia and myocarolial infarct” (E.R. SQUIBB & SONS, INC., priority 1992, dated 1993).
The name of at least one read-out is uncertain.

Test system: isolated rat hearts
Assay: Time to contracture during global ischemia in isolated rat hearts, with isobolographic analysis of the combination
Parameters: species or system Male Sprague-Dawley rats
Settings: cromakalim in combination with zofenopril (3:1, 12:1 and 30:1), compared with cromakalim alone
Method: anesthetized using 100 mg/kg sodium pentobarbital (i.p.). They were intubated and then treated with i.v. heparin (1000 U/kg). While mechanically ventilated, hearts were perfused in situ via retrograde cannulation of the aorta. The hearts were then excised and quickly moved to a Langendorff apparatus where they were perfused with Krebs-Henseleit bicarbonate buffer (112 mM sodium chloride, 25 mM sodium bicarbonate, 5 mM potassium chloride, 1.2 mM magnesium sulfate, 1 mM potassium […], 1.25 mM calcium chloride, 11.5 mM glucose and 2mM pyruvate bubbled with 95% oxygen - 5% carbon dioxide) at a constant perfusion pressure (75 mm Hg). […] Pre-ischemia or pre-drug function, heart rate and coronary flow (extracorporeal electromagnetic flow probe, Carolina Medical Electronics, King, N.C.) were then measured. Cardiac function was determined using double product of heart rate (HR) X left ventricular developed pressure (LVDP) divided by 1000. […]
All hearts were retreated with vehicle or drug for 10 minutes before the onset of ischemia. […] At the end of the experiment, EDP and LDH release were measured and used as an index of severity of ischemia. […]
Several specific concentration ratios (3:1, 12:1 and 30:1) of cromakalim to zofenopril respectively were tested and the effects of the combination determined. […]

For `CC1(C)Oc2ccc(C#N)cc2C(N2CCCC2=O)C1O` (racemic) [Cromakalim, (±)-6-cyano-3,4-dihydro-2,2-dimethyl-trans-4-(2-oxo-1-pyrrolidyl)-2H-benzo[6]-pyran-3-ol], the EC₅₀ value was “significantly lower”.
